Data as given in the supplement of paper PMC10849652.
This is one part of the list.

Amino acid sequences for entries named in this document (tags omitted). A change or cut given only in a name is not applied to a line headed by its entry.
UniProt P40222: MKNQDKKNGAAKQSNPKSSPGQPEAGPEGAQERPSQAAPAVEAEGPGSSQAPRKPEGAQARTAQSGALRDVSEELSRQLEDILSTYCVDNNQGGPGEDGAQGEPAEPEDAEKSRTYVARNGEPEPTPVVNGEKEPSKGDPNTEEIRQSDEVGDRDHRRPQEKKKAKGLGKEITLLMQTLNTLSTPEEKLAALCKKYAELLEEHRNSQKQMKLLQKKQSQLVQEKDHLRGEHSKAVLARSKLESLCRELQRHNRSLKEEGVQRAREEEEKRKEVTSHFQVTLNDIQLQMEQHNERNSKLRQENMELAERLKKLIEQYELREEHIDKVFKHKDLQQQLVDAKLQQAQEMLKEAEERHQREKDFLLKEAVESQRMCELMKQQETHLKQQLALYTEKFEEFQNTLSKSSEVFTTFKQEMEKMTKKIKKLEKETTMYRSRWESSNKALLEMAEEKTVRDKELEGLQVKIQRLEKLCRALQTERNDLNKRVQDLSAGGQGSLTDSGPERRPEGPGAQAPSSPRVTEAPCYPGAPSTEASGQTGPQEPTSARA
UniProt Q9NRR5, whole entry, looked up: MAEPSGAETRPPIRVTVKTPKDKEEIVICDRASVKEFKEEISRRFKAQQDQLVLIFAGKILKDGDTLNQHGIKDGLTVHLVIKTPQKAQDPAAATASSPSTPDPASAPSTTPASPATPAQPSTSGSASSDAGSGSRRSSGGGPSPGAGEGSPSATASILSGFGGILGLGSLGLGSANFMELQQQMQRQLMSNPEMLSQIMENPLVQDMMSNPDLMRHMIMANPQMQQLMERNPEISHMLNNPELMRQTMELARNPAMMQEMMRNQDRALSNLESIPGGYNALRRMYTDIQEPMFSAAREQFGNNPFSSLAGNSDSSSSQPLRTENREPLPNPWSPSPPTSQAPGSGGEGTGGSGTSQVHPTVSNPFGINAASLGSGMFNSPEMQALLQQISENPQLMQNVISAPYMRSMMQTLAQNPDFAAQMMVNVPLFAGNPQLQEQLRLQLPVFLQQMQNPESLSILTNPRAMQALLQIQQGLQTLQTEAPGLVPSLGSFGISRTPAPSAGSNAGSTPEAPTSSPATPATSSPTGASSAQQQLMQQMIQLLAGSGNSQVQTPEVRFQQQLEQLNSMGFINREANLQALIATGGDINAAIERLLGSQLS
UniProt Q9UHD9, whole entry, looked up: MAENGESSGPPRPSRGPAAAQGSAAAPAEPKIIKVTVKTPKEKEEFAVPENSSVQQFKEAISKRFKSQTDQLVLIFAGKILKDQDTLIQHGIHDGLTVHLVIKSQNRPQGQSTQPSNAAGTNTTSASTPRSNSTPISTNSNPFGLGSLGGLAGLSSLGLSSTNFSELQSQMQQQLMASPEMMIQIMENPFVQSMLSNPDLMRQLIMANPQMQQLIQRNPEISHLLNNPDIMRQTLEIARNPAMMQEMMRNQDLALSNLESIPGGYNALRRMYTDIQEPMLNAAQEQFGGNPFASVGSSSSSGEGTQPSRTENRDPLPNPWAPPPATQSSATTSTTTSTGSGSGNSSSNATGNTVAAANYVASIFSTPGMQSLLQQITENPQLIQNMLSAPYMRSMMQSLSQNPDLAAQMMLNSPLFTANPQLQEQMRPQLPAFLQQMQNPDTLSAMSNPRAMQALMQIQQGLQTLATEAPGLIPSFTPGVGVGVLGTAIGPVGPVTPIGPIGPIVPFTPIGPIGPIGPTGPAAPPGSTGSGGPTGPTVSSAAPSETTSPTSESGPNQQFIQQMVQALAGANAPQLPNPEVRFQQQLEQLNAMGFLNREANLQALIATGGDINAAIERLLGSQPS
UniProt Q13885, whole entry, looked up: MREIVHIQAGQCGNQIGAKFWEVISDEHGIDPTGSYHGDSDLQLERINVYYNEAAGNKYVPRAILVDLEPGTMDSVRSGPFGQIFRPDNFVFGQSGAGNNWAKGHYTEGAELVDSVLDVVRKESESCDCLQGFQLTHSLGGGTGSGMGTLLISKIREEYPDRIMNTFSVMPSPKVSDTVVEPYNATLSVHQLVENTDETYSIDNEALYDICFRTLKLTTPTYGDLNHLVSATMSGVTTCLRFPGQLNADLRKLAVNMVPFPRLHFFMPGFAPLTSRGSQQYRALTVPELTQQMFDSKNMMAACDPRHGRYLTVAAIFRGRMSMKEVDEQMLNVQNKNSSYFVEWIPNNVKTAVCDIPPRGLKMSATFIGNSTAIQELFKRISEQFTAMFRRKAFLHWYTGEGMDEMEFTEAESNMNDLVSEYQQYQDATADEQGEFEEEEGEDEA
UniProt P83876: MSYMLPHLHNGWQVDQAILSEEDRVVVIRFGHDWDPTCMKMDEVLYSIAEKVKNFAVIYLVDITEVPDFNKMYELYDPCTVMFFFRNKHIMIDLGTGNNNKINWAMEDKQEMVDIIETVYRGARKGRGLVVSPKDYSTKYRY
UniProt P63146, whole entry, looked up: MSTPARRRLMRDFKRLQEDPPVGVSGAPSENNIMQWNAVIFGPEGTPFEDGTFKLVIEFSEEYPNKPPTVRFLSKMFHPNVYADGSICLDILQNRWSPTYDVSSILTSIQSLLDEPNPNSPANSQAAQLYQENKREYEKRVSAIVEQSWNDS
UniProt P0CG48, whole entry, looked up: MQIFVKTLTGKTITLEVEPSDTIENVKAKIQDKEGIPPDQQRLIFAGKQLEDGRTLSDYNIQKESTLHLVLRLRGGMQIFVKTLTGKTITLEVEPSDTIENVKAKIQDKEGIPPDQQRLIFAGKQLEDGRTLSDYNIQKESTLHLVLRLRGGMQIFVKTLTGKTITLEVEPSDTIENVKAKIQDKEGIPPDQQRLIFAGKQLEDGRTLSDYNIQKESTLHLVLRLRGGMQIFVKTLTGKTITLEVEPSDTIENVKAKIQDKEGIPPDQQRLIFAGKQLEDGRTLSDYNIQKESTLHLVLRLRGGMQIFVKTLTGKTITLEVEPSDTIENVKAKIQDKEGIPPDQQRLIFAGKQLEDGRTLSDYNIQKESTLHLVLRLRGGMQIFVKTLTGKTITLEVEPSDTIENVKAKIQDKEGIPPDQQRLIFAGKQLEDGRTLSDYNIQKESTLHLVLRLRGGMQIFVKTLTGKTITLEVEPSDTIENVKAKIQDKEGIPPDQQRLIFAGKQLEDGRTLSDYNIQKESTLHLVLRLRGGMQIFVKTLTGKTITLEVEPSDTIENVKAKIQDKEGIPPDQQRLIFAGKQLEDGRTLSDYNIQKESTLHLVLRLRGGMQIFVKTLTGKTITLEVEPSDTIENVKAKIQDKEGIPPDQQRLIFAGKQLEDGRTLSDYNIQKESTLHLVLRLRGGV
UniProt Q9H6E5: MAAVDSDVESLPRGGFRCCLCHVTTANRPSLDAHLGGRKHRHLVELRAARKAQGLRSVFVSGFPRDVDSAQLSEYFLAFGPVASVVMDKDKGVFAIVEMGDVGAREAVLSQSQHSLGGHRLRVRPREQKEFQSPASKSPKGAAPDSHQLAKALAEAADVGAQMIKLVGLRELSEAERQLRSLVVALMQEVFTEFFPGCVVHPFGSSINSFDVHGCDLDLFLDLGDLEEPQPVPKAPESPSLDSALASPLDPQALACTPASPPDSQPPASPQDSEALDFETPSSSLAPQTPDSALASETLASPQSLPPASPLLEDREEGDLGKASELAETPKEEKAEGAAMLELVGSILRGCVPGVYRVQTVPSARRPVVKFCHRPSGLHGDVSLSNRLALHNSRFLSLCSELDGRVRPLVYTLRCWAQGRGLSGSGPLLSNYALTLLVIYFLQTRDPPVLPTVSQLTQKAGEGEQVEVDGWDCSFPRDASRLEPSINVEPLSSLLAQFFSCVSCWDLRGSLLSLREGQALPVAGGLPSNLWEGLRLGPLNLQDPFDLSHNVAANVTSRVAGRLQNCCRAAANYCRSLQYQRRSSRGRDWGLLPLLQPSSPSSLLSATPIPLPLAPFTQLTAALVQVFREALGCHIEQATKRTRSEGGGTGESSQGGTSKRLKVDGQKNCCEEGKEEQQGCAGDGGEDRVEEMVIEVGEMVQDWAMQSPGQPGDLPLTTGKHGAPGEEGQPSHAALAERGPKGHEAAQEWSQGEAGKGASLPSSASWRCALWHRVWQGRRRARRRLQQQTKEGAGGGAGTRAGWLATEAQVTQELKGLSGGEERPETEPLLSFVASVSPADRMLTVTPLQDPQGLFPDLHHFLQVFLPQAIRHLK
UniProt P11441: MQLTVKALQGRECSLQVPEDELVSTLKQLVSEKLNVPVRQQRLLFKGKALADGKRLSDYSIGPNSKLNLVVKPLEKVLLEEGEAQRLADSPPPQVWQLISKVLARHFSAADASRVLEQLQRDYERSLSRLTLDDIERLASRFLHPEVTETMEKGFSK
UniProt Q8TBC4: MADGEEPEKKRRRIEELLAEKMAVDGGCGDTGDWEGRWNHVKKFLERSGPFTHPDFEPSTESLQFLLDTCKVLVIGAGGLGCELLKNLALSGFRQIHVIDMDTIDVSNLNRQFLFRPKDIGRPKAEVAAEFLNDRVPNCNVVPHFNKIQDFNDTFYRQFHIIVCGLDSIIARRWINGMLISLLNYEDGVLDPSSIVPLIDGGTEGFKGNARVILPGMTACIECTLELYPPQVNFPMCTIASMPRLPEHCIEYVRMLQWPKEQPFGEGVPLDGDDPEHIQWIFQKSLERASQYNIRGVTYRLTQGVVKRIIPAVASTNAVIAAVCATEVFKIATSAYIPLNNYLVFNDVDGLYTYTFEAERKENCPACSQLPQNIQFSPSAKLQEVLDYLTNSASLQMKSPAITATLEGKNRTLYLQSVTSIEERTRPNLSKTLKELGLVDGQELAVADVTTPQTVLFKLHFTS
UniProt Q9NPD8: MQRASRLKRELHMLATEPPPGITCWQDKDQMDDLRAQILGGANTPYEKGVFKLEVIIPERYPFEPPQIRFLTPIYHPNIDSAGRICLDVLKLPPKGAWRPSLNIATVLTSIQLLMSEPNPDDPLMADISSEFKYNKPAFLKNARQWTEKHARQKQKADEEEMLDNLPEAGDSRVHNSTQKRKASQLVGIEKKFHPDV
UniProt Q9NZ09: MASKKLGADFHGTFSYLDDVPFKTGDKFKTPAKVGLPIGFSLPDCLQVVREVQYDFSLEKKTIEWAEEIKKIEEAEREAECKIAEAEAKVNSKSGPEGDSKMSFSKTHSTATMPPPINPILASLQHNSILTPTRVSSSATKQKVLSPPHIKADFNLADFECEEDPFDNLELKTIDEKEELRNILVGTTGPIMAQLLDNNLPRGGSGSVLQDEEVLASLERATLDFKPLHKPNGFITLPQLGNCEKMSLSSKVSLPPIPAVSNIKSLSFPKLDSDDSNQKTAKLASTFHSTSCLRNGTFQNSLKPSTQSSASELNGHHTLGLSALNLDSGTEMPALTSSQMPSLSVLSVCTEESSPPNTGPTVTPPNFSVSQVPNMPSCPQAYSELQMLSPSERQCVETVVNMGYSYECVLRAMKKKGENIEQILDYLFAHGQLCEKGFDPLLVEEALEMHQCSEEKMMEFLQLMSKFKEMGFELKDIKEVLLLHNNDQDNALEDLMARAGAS
UniProt P22314: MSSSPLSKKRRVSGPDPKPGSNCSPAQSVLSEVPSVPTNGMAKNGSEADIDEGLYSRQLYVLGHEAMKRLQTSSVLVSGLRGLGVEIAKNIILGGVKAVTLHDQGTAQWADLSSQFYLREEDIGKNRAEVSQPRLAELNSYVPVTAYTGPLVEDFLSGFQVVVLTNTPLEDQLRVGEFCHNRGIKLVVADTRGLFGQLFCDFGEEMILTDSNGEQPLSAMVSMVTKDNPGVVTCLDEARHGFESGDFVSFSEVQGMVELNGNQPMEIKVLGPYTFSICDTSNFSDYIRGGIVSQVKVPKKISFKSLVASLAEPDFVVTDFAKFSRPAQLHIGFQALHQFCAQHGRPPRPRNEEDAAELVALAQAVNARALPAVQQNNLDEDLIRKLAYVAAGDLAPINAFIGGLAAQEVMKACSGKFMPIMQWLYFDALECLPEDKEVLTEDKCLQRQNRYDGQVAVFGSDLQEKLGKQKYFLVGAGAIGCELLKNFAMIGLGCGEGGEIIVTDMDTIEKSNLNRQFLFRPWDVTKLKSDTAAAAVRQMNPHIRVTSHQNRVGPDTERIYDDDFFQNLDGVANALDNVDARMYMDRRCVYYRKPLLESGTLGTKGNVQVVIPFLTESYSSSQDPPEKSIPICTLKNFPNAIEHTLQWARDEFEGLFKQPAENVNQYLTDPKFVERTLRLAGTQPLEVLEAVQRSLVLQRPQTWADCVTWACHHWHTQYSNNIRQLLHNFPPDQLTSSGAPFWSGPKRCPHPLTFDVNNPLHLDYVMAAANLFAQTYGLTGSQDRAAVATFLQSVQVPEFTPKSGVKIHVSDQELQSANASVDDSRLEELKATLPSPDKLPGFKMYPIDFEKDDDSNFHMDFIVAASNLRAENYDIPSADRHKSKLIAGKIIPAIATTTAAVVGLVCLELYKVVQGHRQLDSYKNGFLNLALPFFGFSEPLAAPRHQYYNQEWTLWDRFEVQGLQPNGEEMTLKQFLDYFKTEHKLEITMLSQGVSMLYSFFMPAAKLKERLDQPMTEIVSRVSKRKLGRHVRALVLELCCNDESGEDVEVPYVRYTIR

Columns and labels:
Assay in all cases: log2 fold change, soluble protein after heating vs DMSO (PISA); higher = thermal stabilisation; K562 lysate, 10 uM; active = over 0.2 and 3.5 SD of the protein, either way, in both replicates (recomputed)
alvocidib = compound: CN1CC[C@H](c2c(O)cc(O)c3c(=O)cc(-c4ccccc4Cl)oc23)[C@H](O)C1 [alvocidib]
Outline: (§1)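 Log-two fold change in thermal stability relative to solvent controls is reported from duplicates. For each sample, crude K562 extract from dounce-homogenised pellets in PBS pH 7.4 with 1 mM MgCl2, at 1 mg/mL protein, was treated with 10 μM compound for 30 min. Aliquots heated for 3 min across 48°C-58°C were pooled, brought to 0.5% NP-40 at 4°C and cleared at 21,000xg for 90 min. The supernatant was quantified by TMTpro 16plex LC-MS/MS with channel sums equalised.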

Tubastatin A = compound: CN1CCc2c(c3ccccc3n2Cc2ccc(C(=O)NO)cc2)C1 [Tubastatin A]
Outline: as §1

[1] = compound: CNC(=O)C1=CC=CC=C1NC2=NC(=NC=C2Cl)NC3=C(C=C(C=C3)N4CCOCC4)OC
Outline: as §1

defactinib = compound: CNC(=O)c1ccc(Nc2ncc(C(F)(F)F)c(NCc3nccnc3N(C)S(C)(=O)=O)n2)cc1 [defactinib]
Outline: as §1

[2] = compound: CNc1nc(-c2ccc3c(N)n[nH]c3c2)cc(N2C[C@@H](C(=O)NC3CCCCC3)CC[C@H]2C)n1
Outline: as §1

encorafenib = compound: COC(=O)N[C@@H](C)CNc1nccc(-c2cn(C(C)C)nc2-c2cc(Cl)cc(NS(C)(=O)=O)c2F)n1 [encorafenib]
Outline: as §1

[3] = compound: COC(=O)[C@H](CCSC)NC(=O)C1=C(C=C(C=C1)NC[C@H](CS)N)C2=CC=CC=C2
Outline: as §1

alisertib = compound: COc1cc(Nc2ncc3c(n2)-c2ccc(Cl)cc2C(c2c(F)cccc2OC)=NC3)ccc1C(=O)O [alisertib]
Outline: as §1

[4] = compound: COc1cc2nc(-c3cc(F)ccc3O)nc(N[C@@H]3CNC[C@H]3C(C)(C)O)c2cc1OC
Outline: as §1

gefitinib = compound: COc1cc2ncnc(Nc3ccc(F)c(Cl)c3)c2cc1OCCCN1CCOCC1 [gefitinib]
Outline: as §1

lapatinib = compound: CS(=O)(=O)CCNCc1ccc(-c2ccc3ncnc(Nc4ccc(OCc5cccc(F)c5)c(Cl)c4)c3c2)o1 [lapatinib]
Outline: as §1

pictilisib = compound: CS(=O)(=O)N1CCN(Cc2cc3nc(-c4cccc5[nH]ncc45)nc(N4CCOCC4)c3s2)CC1 [pictilisib]
Outline: as §1

crizotinib = compound: C[C@@H](Oc1cc(-c2cnn(C3CCNCC3)c2)cnc1N)c1c(Cl)ccc(F)c1Cl [crizotinib]
Outline: as §1

[5] = compound: C[C@H](C1=CC=C(C=C1)C(=O)NC2=C3C=CNC3=NC=C2)N
Outline: as §1

duvelisib = compound: C[C@H](Nc1ncnc2nc[nH]c12)c1cc2cccc(Cl)c2c(=O)n1-c1ccccc1 [duvelisib]
Outline: as §1

gandotinib = compound: Cc1cc(Nc2cc(CN3CCOCC3)c3nc(C)c(Cc4ccc(Cl)cc4F)n3n2)n[nH]1 [gandotinib]
Outline: as §1

tozasertib = compound: Cc1cc(Nc2cc(N3CCN(C)CC3)nc(Sc3ccc(NC(=O)C4CC4)cc3)n2)n[nH]1 [tozasertib]
Outline: as §1

doramapimod = compound: Cc1ccc(-n2nc(C(C)(C)C)cc2NC(=O)Nc2ccc(OCCN3CCOCC3)c3ccccc23)cc1 [doramapimod]
Outline: as §1

bafetinib = compound: Cc1ccc(NC(=O)c2ccc(CN3CC[C@H](N(C)C)C3)c(C(F)(F)F)c2)cc1Nc1nccc(-c2cncnc2)n1 [bafetinib]
Outline: as §1

[6] = compound: Cc1cccc(CC(=O)N2CCc3c2ccc(-c2cn(C)c4ncnc(N)c24)c3F)n1
Outline: as §1

| Target | log2 fold change (alvocidib) | log2 fold change (Tubastatin A) | log2 fold change [1] | log2 fold change (defactinib) | log2 fold change [2] | log2 fold change (encorafenib) | log2 fold change [3] | log2 fold change (alisertib) | log2 fold change [4] | log2 fold change (gefitinib) | log2 fold change (lapatinib) | log2 fold change (pictilisib) | log2 fold change (crizotinib) | log2 fold change [5] | log2 fold change (duvelisib) | log2 fold change (gandotinib) | log2 fold change (tozasertib) | log2 fold change (doramapimod) | log2 fold change (bafetinib) | log2 fold change [6] |
| --- | --- | --- | --- | --- | --- | --- | --- | --- | --- | --- | --- | --- | --- | --- | --- | --- | --- | --- | --- | --- |
| TXLNA (UniProt P40222) | inactive: -0.01 | inactive: 0.042 | inactive: 0.023 | inactive: 0.019 | inactive: 0.009 | inactive: -0.003 | inactive: -0.04 | inactive: -0.006 | inactive: -0.009 | inactive: -0.019 | inactive: -0.009 | inactive: -0.005 | inactive: 0.062 | inactive: 0.037 | inactive: -0.017 | inactive: 0.004 | inactive: -0.004 | inactive: -0.021 | inactive: 0.023 | inactive: -0.053 |
| UBQLN4 (UniProt Q9NRR5) | inactive: 0.026 | inactive: 0.027 | inactive: -0.002 | inactive: 0.042 | inactive: 0.036 | inactive: 0.007 | inactive: -0.057 | inactive: -0.03 | inactive: -0.028 | inactive: -0.017 | inactive: 0.043 | inactive: -0.054 | inactive: -0.029 | inactive: 0.035 | inactive: 0.001 | inactive: -0.02 | inactive: 0.026 | inactive: -0.073 | inactive: -0.02 | inactive: -0.028 |
| UBQLN2 (UniProt Q9UHD9) | inactive: -0.018 | inactive: 0.015 | inactive: -0.014 | inactive: 0.058 | inactive: 0.069 | inactive: 0.008 | inactive: -0.033 | inactive: -0.052 | inactive: -0.015 | inactive: -0.13 | inactive: 0.051 | inactive: -0.008 | inactive: 0.029 | inactive: 0 | inactive: 0.009 | inactive: -0.003 | inactive: -0.028 | inactive: -0.053 | inactive: 0.006 | inactive: 0.046 |
| TUBB2A (UniProt Q13885) | inactive: -0.007 | inactive: -0.062 | inactive: -0.021 | inactive: 0.006 | inactive: -0.008 | inactive: 0.01 | inactive: 0.071 | inactive: -0.005 | inactive: -0.001 | inactive: -0.006 | inactive: 0.009 | inactive: 0.011 | inactive: -0.049 | inactive: -0.016 | inactive: -0.012 | inactive: 0.028 | inactive: -0.011 | inactive: 0.004 | inactive: 0.026 | inactive: -0.005 |
| UBL7 (UniProt Q96S82) | inactive: -0.009 | inactive: 0.077 | inactive: -0.039 | inactive: 0.078 | inactive: -0.026 | inactive: 0.03 | inactive: -0.033 | inactive: 0.04 | inactive: -0.02 | inactive: -0.052 | inactive: 0.015 | inactive: -0.016 | inactive: 0 | inactive: 0.013 | inactive: -0.02 | inactive: -0.045 | inactive: 0.023 | inactive: -0.021 | inactive: -0.035 | inactive: -0.015 |
| TXNL4A (UniProt P83876) | inactive: -0.09 | inactive: 0.02 | inactive: -0.035 | inactive: -0.017 | inactive: 0.027 | inactive: -0.016 | inactive: -0.051 | inactive: 0.012 | inactive: 0.045 | inactive: 0.012 | inactive: -0.032 | inactive: 0.023 | inactive: -0.02 | inactive: -0.161 | inactive: -0.012 | inactive: 0.004 | inactive: 0.005 | inactive: 0.013 | inactive: 0.042 | inactive: 0.018 |
| UBE2B (UniProt P63146) | inactive: 0.002 | inactive: 0.034 | inactive: 0.011 | inactive: 0.03 | inactive: 0.032 | inactive: 0.036 | inactive: 0.005 | inactive: -0.03 | inactive: -0.008 | inactive: -0.029 | inactive: -0.008 | inactive: -0.031 | inactive: 0.024 | inactive: 0.028 | inactive: -0.033 | inactive: 0.009 | inactive: -0.005 | inactive: -0.011 | inactive: -0.013 | inactive: -0.025 |
| UBC (UniProt P0CG48) | inactive: 0.178 | inactive: 0.038 | inactive: 0.002 | inactive: 0.021 | inactive: 0.038 | inactive: -0.012 | inactive: -0.05 | inactive: -0.03 | inactive: -0.014 | inactive: -0.092 | inactive: 0.012 | inactive: 0.015 | inactive: -0.003 | inactive: 0.197 | inactive: -0.01 | inactive: -0.058 | inactive: 0.03 | inactive: -0.008 | inactive: -0.033 | inactive: -0.079 |
| TUT1 (UniProt Q9H6E5) | inactive: 0 | inactive: -0.015 | inactive: 0.016 | inactive: 0.07 | inactive: -0.015 | inactive: 0.001 | inactive: 0.204 | inactive: 0.024 | inactive: -0.048 | inactive: -0.001 | inactive: -0.01 | inactive: -0.072 | inactive: -0.168 | inactive: -0.066 | inactive: 0.016 | inactive: -0.021 | inactive: 0.046 | inactive: -0.071 | inactive: -0.037 | inactive: 0.069 |
| UBL4A (UniProt P11441) | inactive: 0.016 | inactive: -0.039 | inactive: -0.015 | inactive: 0.006 | inactive: -0.008 | inactive: 0.046 | inactive: -0.043 | inactive: 0.018 | inactive: -0.059 | inactive: -0.033 | inactive: -0.003 | inactive: -0.057 | inactive: 0.112 | active: 0.253 | inactive: 0.007 | inactive: -0.157 | inactive: 0.076 | inactive: -0.029 | inactive: -0.044 | inactive: -0.06 |
| UBA3 (UniProt Q8TBC4) | inactive: -0.006 | inactive: -0.017 | inactive: 0.002 | inactive: -0.008 | inactive: -0.008 | inactive: -0.021 | inactive: 0.035 | inactive: -0.026 | inactive: 0 | inactive: -0.035 | inactive: -0.026 | inactive: -0.025 | inactive: -0.016 | inactive: -0.017 | inactive: 0.019 | inactive: 0.01 | inactive: -0.001 | inactive: 0.021 | inactive: 0.025 | inactive: -0.009 |
| UBE2T (UniProt Q9NPD8) | inactive: -0.01 | inactive: 0.003 | inactive: 0.018 | inactive: -0.036 | inactive: 0.024 | inactive: -0.003 | inactive: -0.061 | inactive: 0 | inactive: 0.002 | inactive: -0.028 | inactive: -0.041 | inactive: -0.042 | inactive: -0.015 | inactive: -0.086 | inactive: -0.037 | inactive: 0.017 | inactive: 0.019 | inactive: 0.024 | inactive: -0.05 | inactive: 0.011 |
| TUBGCP6 (UniProt Q96RT7) | inactive: -0.005 | inactive: -0.196 | inactive: 0.027 | inactive: -0.239 | inactive: 0.057 | inactive: -0.047 | inactive: 0.071 | inactive: -0.099 | inactive: 0.107 | inactive: 0.039 | inactive: -0.047 | inactive: -0.096 | inactive: 0.036 | inactive: -0.175 | inactive: -0.115 | inactive: 0.393 | inactive: 0.102 | inactive: -0.066 | inactive: -0.028 | inactive: 0.367 |
| UBAP1 (UniProt Q9NZ09) | inactive: -0.01 | inactive: 0.008 | inactive: 0.021 | inactive: -0.074 | inactive: -0.024 | inactive: 0.006 | inactive: -0.105 | inactive: 0.043 | inactive: -0.018 | inactive: 0.002 | inactive: 0.015 | inactive: -0.033 | inactive: 0.012 | inactive: 0.008 | inactive: -0.011 | inactive: 0.007 | inactive: -0.019 | inactive: -0.017 | inactive: 0.078 | inactive: -0.033 |
| TUBA3C (UniProt P0DPH7) | inactive: -0.012 | inactive: -0.15 | inactive: 0.01 | inactive: -0.013 | inactive: -0.018 | inactive: -0.037 | inactive: 0.042 | inactive: -0.023 | inactive: -0.035 | inactive: -0.005 | inactive: 0.038 | inactive: -0.003 | inactive: -0.078 | inactive: 0.009 | inactive: 0.03 | inactive: 0.072 | inactive: 0.055 | inactive: 0.014 | inactive: 0.012 | inactive: 0.023 |
| UBA1 (UniProt P22314) | inactive: 0.012 | inactive: -0.082 | inactive: 0.007 | inactive: -0.011 | inactive: -0.026 | inactive: -0.017 | inactive: 0.139 | inactive: 0.001 | inactive: 0.002 | inactive: -0.01 | inactive: -0.005 | inactive: -0.003 | inactive: -0.037 | inactive: -0.012 | inactive: 0.011 | inactive: -0.017 | inactive: -0.005 | inactive: 0.009 | inactive: -0.017 | inactive: 0.023 |

Quoted from the listing.
Entry of UBL4A (UniProt P11441) under log2 fold change (alvocidib): inactive: 0.016
Entry of UBAP1 (UniProt Q9NZ09) under log2 fold change (doramapimod): inactive: -0.017
